The results in this text go back to paper PMC6098150.

The chains behind the UniProt entries cited, without tags or fusion partners. Where a name states a change or a piece, a line headed by the entry shows the natural chain unless it says otherwise.
UniProt F6RU57: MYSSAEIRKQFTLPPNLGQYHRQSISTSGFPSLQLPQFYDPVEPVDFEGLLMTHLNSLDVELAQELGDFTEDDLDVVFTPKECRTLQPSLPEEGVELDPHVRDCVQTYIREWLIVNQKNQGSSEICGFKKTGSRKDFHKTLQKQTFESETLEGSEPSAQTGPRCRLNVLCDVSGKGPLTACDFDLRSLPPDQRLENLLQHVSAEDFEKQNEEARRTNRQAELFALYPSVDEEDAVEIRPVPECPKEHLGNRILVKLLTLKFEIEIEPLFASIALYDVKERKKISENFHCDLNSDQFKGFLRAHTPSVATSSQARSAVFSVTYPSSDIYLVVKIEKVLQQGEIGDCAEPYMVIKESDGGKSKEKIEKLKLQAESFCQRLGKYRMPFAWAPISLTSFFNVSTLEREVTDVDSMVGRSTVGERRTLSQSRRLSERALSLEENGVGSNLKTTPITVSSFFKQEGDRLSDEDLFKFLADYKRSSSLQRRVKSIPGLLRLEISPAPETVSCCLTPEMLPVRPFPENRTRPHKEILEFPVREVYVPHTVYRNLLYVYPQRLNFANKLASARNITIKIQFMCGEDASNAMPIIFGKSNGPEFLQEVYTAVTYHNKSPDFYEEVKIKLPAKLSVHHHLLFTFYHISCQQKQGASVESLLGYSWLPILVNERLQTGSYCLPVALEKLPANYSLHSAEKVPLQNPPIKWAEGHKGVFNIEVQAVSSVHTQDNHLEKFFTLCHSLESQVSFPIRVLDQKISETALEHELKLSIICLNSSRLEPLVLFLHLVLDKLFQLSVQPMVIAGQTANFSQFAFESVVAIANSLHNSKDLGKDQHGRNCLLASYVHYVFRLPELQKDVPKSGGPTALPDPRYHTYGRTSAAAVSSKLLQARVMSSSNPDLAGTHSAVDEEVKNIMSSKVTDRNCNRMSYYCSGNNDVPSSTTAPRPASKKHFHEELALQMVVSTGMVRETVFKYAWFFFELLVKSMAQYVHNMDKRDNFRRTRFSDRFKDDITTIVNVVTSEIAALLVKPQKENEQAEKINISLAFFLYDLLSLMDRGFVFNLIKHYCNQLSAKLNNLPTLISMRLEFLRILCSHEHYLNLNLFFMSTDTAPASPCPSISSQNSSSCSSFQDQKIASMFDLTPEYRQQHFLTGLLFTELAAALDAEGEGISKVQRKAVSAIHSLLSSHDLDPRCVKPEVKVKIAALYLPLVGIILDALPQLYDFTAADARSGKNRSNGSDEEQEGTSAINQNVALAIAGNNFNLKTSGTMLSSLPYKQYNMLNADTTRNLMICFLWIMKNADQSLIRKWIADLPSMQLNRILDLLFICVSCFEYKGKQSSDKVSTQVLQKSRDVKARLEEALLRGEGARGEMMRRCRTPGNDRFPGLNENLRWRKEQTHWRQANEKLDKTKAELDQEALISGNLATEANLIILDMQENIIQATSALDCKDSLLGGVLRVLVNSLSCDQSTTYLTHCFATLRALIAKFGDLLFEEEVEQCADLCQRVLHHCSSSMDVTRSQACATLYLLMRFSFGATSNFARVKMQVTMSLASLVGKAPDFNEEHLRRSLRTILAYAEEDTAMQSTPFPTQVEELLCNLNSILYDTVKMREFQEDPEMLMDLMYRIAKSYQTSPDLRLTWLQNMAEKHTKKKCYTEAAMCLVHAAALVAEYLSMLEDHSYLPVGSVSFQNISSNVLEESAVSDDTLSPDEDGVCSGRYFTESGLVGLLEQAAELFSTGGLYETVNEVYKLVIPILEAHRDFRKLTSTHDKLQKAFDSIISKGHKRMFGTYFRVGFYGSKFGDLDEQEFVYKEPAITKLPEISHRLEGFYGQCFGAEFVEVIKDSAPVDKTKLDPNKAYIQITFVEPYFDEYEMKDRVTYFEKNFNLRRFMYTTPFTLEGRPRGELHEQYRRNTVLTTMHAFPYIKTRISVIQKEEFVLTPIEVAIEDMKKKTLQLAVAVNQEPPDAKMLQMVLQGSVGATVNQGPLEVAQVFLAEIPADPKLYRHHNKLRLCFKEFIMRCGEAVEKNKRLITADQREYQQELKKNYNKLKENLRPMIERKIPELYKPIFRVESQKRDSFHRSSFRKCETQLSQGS
UniProt F7DZI2: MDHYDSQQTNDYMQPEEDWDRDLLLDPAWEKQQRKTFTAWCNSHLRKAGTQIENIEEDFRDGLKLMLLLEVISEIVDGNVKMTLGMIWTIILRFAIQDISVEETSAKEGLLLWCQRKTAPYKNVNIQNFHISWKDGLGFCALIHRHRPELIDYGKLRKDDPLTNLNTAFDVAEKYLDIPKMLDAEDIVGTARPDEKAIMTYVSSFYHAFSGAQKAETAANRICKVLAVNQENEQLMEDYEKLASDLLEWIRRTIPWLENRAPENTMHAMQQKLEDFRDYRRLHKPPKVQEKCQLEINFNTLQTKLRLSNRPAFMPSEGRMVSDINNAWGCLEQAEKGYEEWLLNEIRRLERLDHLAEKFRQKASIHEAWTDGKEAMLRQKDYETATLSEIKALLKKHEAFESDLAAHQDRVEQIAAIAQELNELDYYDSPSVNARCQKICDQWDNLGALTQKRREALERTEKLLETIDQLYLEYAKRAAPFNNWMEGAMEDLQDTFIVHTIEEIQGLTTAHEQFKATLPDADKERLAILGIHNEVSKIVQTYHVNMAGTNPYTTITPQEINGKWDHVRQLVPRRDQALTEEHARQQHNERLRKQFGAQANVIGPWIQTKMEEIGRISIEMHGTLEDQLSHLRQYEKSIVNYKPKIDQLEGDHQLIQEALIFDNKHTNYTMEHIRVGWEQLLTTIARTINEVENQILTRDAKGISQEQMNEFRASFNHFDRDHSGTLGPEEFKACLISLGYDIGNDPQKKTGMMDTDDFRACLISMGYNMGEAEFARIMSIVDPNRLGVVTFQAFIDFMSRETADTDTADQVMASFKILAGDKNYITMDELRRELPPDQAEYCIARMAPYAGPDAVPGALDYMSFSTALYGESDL
UniProt A0A5F5PTW4: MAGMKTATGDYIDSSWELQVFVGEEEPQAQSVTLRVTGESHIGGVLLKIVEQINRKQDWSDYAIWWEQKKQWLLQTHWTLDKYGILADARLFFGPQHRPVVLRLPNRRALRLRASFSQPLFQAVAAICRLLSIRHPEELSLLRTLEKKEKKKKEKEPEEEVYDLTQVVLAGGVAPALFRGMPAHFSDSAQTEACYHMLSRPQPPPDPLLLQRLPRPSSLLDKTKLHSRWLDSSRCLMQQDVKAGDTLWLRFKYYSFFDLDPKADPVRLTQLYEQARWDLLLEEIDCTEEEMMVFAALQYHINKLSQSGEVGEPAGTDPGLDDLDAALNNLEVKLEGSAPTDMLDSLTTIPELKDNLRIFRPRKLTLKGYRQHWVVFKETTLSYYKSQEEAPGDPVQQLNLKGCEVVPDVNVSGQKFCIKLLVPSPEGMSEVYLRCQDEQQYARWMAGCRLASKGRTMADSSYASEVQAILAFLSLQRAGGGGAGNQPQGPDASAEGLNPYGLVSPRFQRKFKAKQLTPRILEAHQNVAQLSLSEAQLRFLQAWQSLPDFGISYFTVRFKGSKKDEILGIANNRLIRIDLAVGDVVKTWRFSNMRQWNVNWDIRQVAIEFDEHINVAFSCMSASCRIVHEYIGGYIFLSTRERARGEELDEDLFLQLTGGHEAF
UniProt Q28372: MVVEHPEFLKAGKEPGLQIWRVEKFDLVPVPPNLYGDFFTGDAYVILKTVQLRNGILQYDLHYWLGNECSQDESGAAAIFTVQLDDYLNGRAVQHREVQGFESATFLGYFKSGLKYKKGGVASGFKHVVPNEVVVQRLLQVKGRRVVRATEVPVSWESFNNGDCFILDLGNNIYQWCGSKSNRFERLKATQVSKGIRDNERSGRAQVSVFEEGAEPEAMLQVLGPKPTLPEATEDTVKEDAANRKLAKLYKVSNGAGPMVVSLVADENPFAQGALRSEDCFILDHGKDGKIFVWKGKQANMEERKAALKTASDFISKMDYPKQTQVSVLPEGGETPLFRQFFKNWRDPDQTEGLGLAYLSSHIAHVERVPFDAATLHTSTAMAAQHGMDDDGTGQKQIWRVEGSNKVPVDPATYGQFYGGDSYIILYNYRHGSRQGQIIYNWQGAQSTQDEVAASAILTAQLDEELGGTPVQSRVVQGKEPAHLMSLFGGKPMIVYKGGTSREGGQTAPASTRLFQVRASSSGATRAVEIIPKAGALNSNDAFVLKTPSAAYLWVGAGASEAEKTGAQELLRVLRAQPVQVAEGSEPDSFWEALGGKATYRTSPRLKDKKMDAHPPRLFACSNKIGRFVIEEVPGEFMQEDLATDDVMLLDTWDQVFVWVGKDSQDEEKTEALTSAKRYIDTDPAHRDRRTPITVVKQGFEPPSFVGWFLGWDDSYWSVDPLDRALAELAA
UniProt F6UVF8: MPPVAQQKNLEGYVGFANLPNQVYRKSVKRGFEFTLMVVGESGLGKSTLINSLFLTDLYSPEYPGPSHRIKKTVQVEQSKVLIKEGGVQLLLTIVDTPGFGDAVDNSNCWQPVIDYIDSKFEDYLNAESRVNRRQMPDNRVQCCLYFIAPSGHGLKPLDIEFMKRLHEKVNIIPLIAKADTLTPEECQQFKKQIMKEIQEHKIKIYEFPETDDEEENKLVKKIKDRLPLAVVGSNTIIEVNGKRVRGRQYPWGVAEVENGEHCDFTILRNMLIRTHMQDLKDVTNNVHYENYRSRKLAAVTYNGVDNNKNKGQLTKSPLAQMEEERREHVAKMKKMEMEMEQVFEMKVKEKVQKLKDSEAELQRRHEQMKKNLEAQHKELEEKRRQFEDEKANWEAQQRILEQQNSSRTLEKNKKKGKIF
UniProt F6SXQ9: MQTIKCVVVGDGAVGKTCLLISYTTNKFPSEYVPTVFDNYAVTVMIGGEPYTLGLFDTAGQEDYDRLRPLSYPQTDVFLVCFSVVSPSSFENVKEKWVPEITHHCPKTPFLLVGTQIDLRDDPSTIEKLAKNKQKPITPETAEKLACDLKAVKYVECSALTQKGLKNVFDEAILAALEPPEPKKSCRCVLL
UniProt F6QQL7: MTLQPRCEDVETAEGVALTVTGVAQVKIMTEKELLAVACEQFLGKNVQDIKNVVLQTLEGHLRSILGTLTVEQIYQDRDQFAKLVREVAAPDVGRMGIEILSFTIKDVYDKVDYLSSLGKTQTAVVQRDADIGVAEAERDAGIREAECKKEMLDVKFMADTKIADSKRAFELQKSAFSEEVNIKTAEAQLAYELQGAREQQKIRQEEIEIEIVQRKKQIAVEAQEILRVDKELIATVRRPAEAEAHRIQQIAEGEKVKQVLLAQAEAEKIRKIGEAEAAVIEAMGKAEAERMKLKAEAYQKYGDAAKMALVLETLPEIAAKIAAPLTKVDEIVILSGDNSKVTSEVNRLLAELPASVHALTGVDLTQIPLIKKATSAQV
UniProt F6PZY1: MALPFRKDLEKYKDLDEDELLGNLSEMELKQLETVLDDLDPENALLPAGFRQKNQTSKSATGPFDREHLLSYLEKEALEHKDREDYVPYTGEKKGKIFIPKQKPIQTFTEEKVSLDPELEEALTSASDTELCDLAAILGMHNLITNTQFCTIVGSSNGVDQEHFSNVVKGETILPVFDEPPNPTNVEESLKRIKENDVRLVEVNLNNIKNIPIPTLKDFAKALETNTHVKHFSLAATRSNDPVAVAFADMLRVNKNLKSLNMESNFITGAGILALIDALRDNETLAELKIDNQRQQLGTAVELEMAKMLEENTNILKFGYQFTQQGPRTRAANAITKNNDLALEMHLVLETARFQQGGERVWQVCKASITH
UniProt F7B5C4: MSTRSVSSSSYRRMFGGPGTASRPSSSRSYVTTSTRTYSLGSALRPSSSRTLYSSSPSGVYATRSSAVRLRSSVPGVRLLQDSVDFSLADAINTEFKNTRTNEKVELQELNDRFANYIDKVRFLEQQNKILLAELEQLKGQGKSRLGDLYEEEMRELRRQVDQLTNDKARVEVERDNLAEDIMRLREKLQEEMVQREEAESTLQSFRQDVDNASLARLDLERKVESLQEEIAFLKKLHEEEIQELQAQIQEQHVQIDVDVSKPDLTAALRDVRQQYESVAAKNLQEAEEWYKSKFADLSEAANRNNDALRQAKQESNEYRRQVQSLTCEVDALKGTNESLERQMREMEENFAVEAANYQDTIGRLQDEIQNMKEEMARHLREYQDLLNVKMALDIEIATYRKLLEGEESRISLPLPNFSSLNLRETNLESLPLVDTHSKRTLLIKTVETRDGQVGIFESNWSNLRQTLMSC

Results are given in words; binding and its absence hold for the method and conditions named. Binding seen in cells or lysates may run through a third protein. These calls come from enrichment with a bait or labelling near it, and not all partners need be listed.

The first experiment addresses Dedicator of cytokinesis 8 (horse (endogenous in equine PBL)) (UniProt F6RU57). Kind of experiment: affinity purification with mass spectrometry; immunoprecipitation of endogenous DOCK8 (rabbit polyclonal H-159 on Protein G Sepharose) from PBL lysates of three healthy and three ERU horses; TBS, 2% CHAPS; overnight at 4 °C; label-free LC-MS/MS; ≥2 peptide counts, enrichment factor ≥4.
For Actinin, alpha 1 (from UniProt F7DZI2), the binding result is reported as “binds”.
In the case of CORO1C (from UniProt A0A3Q2IEP2 1-480), the binding result is listed as “binds”.
For FERMT3 (from UniProt A0A5F5PTW4 1-663), the binding entry is given as “binds”.
Take FN1 (from UniProt Q28377 32-2477): the binding entry is “binds”.
The same measure, in the same setting: then GSN (from UniProt Q28372 1-731), with “binds”; and Septin 7 (from UniProt F6UVF8), with “binds”.

The target in a further experiment is Septin 7 (horse (endogenous in equine PBL)) (UniProt F6UVF8). Kind of experiment: affinity purification with mass spectrometry; immunoprecipitation of endogenous septin 7 (rat anti-septin 7 clone 19A4 on Protein G Sepharose) from PBL lysate of a healthy horse; TBS (50 mM Tris, 150 mM NaCl), 2% CHAPS; overnight at 4 °C; label-free LC-MS/MS; enrichment factor ≥18 against isotype control.
As for Actinin, alpha 1 (from UniProt F7DZI2), the binding result is on record as “binds”.
The same measure, in the same setting: then “Cell division cycle 42 (from UniProt F6SXQ9)”, with “binds”; and “Dedicator of cytokinesis 8 (from UniProt F6RU57)”, with “binds”; and Flotillin 2 (from UniProt F6QQL7), with “binds”.
As for Myosin IG (from UniProt F7AMC4), the binding entry is on record as “binds”.
Still for that read-out and setting: then “Tropomodulin 3 (ubiquitous) (from UniProt F6PZY1)”, with “binds”; and Vimentin (from UniProt F7B5C4), with “binds”.
